# Hit rate of the full screen: of about 340,000 compounds, about 6,200 (1.8%) were called active. The inconclusive results got no clear call from the source; some entries with a clear call stand among them for comparison. Calls follow the shape of the dose curve; as a rule, active = well fitted activation curve with a large enough effect; inconclusive = small, poorly fitted or top-dose-only effect; inactive = no such curve, though single readings can be large or run the other way. Potencies of inconclusive entries are doubtful fits and often do not repeat.
# Test: A quantitative high throughput screen for small molecules that induce DNA re-replication in SW480 colon adenocarcinoma cells. Also: nearly all actives have a fitted effect of over 55% in size. As to re-replication activation: % of control where 0% means no effect.
# Details: Hoechst DNA content imaging, 48 h; re-replication activation: at 46.1 µM (top of the series) unless noted
# Summary of the method: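 Treated cells incubate 48 hr (37 C, 5% CO2), are stained 40 min with Hoechst, and nuclear fluorescence is enumerated; a rise in nuclei with high DNA signal marks re-replication.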
# Potency is read from the fitted curve at half-maximal effect.
Structure (SMILES),re-replication activation,Potency
CCOC(=O)c1ccc(CNC(=O)C2CCCCC2C(=O)OCC(F)(F)F)o1 (stereo not drawn),inactive: 6.34% [at 9.22 µM],
O=C(CCCOc1ccc(Cl)cc1Cl)Nc1cc(S(=O)(=O)N2CCOCC2)ccc1N1CCOCC1,inactive: 4.76%,
CCCCCC(O)CCCC(=O)O (stereo not drawn),,"inconclusive: 0.0891 µM [activator, full curve, poor fit]"
O=C(NCCN1CCOCC1)c1ccccc1Cl,,"inconclusive: 5.8 µM [activator, full curve, poor fit]"
Cc1oc2c(O)c(O)ccc2c(=O)c1-c1cnn(-c2ccccc2)c1,,"inconclusive: 23.1 µM [activator, partial curve, poor fit]"
CCOc1ccc(-n2c(SCC(=O)NC(C)CC)nc3n[nH]c(C)c3c2=N)cc1 (stereo not drawn),inactive: -1.49%,
COc1ccc(C(=O)/C=C2\C(=O)Nc3ccc(Br)cc32)cc1,,"inconclusive: 29.1 µM [activator, single point]"
Cn1c(=O)c2cc(NC(=O)c3ccccc3Cl)c(=O)oc2n(C)c1=O,,"inconclusive: 6.51 µM [activator, single point]"
C=C1CCN([C@@H](CC(C)C)C(=O)NCCC(C)C)S(=O)(=O)c2ccccc21,,"inconclusive: 32.6 µM [activator, partial curve, poor fit]"
Cc1cccc(C(=O)Nc2c(C#N)c(C)c(C)n2Cc2ccccc2)c1,inactive: 2.11%,
COc1ccccc1NC(=S)NC(=O)CCCOc1ccc(Cl)cc1Cl,,"inconclusive: 5.17 µM [activator, partial curve, poor fit]"
COc1ccc(C=O)cc1Oc1nc(Cl)ncc1F,,"inconclusive: 29.1 µM [activator, single point]"
COc1ccc(-c2[nH]ncc2N=Nc2ccccc2)cc1,,"inconclusive: 29.1 µM [activator, single point]"
COc1ccc(NC(=O)/C(C#N)=C/c2ccc(Sc3nncn3C)c([N+](=O)[O-])c2)cc1,,"inconclusive: 2.31 µM [activator, partial curve, poor fit]"
COc1cc(-c2ccc(NC(=O)c3ccc(C)cc3)c(OC)c2)ccc1NC(=O)c1ccc(C)cc1,,active: 2.59 µM
COc1cc(CNCc2cccc(OC)c2OC)cc(OC)c1,,"inconclusive: 4.61 µM [activator, full curve, poor fit]"
COC(=O)c1ccc2c(c1O)C(=O)c1ccccc1C2=O,,"inconclusive: 29.1 µM [activator, single point]"
Cc1nn(CC(C)C)c(Cl)c1C(=O)N(C)CC(=O)Nc1c(Cl)cccc1Cl,,"inconclusive: 18.4 µM [activator, single point]"
Cc1ccc(SC(C)C(=O)N2CCN(c3ccccc3)CC2)cc1 (stereo not drawn),,"inconclusive: 20.6 µM [activator, partial curve, poor fit]"
COc1ccc(S(=O)(=O)N(C)C[C@H]2Oc3ccc(NS(=O)(=O)c4ccccc4)cc3C(=O)N([C@H](C)CO)C[C@@H]2C)cc1,inactive: -26.7%,
CCCCn1c(N)c(N(Cc2ccccc2)C(=O)COc2ccccc2F)c(=O)[nH]c1=O,,"inconclusive: 10.3 µM [activator, single point]"
O=C(COC(=O)/C=C/c1ccc(C(F)(F)F)cc1)NC(=O)NCc1ccco1,inactive: 0.732%,

Structure (SMILES),re-replication activation,Potency
Cc1c(NC(=O)c2cc(-c3ccc(O)cc3)on2)c(=O)n(-c2ccccc2)n1C,,"inconclusive: 0.116 µM [activator, full curve, poor fit]"
Cc1sc2nc(CN3CCCCC3)nc(Cl)c2c1C,,"inconclusive: 20.6 µM [activator, single point]"
Nc1nc(N)nc(-c2cc([N+](=O)[O-])ccc2O)n1,,"inconclusive: 4.11 µM [activator, full curve]"
O=C(/C=C1\NC2(CCCC2)Cc2ccccc21)C(=O)N/N=C/c1ccccc1O,,"inconclusive: 4.11 µM [activator, full curve, poor fit]"
Cc1ccc(CNC(=O)COC(=O)Cc2ccc(-c3ccccc3)cc2)cc1,,"inconclusive: 0.326 µM [activator, partial curve, poor fit]"
Cc1cccc(C)c1OCC(=O)Nc1cc(Cl)ccc1-n1cncn1,inactive: -46.7%,
Cc1ccc(C(=O)N2CCN(Cc3ccc4c(c3)OCO4)CC2)cc1[N+](=O)[O-],,"inconclusive: 13 µM [activator, single point]"
COC(=O)CSc1ncccc1-c1nc2ccccc2[nH]1,inactive: 2.93%,
COCc1nnc(NC(=O)c2ccc(S(=O)(=O)N3CCCc4ccccc43)cc2)o1,,"inconclusive: 29.1 µM [activator, single point]"
CCC(C)OC(=O)c1[nH]c2c(c1C)C(=O)CC(c1ccc(N(C)C)cc1)C2 (stereo not drawn),,"inconclusive: 20.6 µM [activator, single point]"
CC(C)C[C@H]1CN=C(Nc2ccccc2)N1CCc1ccc(F)cc1,,"inconclusive: 2.31 µM [activator, full curve, poor fit]"
CS(=O)(=O)Nc1nnc(SCC(=O)Nc2cccc([N+](=O)[O-])c2)s1,inactive: -8.19%,
COc1ccc(C(OCC(O)CNCCc2ccccc2)c2ccc(OC)cc2)cc1 (stereo not drawn),,"inconclusive: 16.4 µM [activator, single point]"
FC(F)(F)c1cnc(NNC(=S)Nc2ccc(Cl)cc2)c(Cl)c1,,"inconclusive: 16.4 µM [activator, single point]"
Cc1ccc2cc(C(c3nnnn3CC3CCCO3)N3CCc4ccccc4C3)c(=O)[nH]c2c1 (stereo not drawn),inactive: -6.27%,
CC/C(=N\NC(=O)CCC(=O)NCc1ccccc1)c1ccc(O)cc1,,"inconclusive: 20.6 µM [activator, single point]"
COc1cc(/C=C2\SC(=O)N(CC(=O)Nc3cccc(C)c3)C2=O)ccc1OC(C)C(=O)O (stereo not drawn),inactive: -4.79%,
COc1ccc(OC)c(S(=O)(=O)N2CCC(C(=O)N3CCCCCC3)CC2)c1,inactive: -6.87%,
O=C1CC(c2ccccc2)CC(O)=C1C=NCCN1CCNCC1 (stereo not drawn),inactive: -3.7%,
CC(=O)N1Cc2ccccc2C(C)CC12CCCCC2 (stereo not drawn),inactive: 2.56%,
CC1CCCN(C(=O)CN(C)S(=O)(=O)c2cccc3nsnc23)C1 (stereo not drawn),inactive: -34.6%,

# In the list so far, these contain two or more sulfur atoms:
Structure (SMILES),re-replication activation,Potency
COc1ccc(S(=O)(=O)N(C)C[C@H]2Oc3ccc(NS(=O)(=O)c4ccccc4)cc3C(=O)N([C@H](C)CO)C[C@@H]2C)cc1,inactive: -26.7%,
CS(=O)(=O)Nc1nnc(SCC(=O)Nc2cccc([N+](=O)[O-])c2)s1,inactive: -8.19%,
CC1CCCN(C(=O)CN(C)S(=O)(=O)c2cccc3nsnc23)C1 (stereo not drawn),inactive: -34.6%,

# Reference: PubChem BioAssay AID624297 (National Center for Advancing Translational Sciences (NCATS), 2012)
